# Screening data, single-dose tests

The chains behind the UniProt entries cited, without tags or fusion partners. Residues count along the entry.
UniProt P9WNZ1, whole entry: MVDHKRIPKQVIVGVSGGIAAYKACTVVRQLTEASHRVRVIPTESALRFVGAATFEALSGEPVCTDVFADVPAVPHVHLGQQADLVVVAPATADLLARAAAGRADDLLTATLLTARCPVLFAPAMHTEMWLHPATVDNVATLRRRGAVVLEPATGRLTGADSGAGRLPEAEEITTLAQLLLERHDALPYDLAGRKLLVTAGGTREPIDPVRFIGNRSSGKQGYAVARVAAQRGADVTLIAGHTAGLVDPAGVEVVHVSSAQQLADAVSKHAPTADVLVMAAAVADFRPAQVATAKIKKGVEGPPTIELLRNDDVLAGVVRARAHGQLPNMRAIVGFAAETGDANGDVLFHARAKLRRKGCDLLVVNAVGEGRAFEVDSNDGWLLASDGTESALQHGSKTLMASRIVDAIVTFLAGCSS
UniProt Q8IDJ8, 1-583: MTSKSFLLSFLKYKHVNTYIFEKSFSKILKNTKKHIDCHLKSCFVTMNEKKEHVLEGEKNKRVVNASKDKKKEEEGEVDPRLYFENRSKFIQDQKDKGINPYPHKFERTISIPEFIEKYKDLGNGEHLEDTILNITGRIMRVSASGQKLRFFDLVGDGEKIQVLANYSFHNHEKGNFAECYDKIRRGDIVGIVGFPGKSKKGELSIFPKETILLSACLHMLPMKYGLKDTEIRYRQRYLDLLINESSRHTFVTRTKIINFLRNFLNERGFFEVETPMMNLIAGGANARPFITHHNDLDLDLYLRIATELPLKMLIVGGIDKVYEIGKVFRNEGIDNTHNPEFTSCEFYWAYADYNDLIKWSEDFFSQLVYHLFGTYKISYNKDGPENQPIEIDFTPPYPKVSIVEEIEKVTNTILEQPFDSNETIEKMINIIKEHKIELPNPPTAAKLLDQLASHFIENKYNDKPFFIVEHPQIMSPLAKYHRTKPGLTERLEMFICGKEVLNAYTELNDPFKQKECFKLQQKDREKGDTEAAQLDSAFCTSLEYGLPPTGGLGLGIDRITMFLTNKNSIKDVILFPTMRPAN
UniProt P9WFT3, whole entry: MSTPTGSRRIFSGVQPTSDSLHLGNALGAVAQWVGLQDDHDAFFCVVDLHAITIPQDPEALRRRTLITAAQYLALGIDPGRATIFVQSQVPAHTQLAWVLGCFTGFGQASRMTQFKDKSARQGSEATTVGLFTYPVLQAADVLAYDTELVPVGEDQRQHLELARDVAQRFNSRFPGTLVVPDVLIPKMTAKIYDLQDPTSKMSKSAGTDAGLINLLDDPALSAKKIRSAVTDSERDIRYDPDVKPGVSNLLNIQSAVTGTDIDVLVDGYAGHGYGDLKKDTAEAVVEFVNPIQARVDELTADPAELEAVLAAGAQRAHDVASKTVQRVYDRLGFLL
UniProt I6X8D2, whole entry: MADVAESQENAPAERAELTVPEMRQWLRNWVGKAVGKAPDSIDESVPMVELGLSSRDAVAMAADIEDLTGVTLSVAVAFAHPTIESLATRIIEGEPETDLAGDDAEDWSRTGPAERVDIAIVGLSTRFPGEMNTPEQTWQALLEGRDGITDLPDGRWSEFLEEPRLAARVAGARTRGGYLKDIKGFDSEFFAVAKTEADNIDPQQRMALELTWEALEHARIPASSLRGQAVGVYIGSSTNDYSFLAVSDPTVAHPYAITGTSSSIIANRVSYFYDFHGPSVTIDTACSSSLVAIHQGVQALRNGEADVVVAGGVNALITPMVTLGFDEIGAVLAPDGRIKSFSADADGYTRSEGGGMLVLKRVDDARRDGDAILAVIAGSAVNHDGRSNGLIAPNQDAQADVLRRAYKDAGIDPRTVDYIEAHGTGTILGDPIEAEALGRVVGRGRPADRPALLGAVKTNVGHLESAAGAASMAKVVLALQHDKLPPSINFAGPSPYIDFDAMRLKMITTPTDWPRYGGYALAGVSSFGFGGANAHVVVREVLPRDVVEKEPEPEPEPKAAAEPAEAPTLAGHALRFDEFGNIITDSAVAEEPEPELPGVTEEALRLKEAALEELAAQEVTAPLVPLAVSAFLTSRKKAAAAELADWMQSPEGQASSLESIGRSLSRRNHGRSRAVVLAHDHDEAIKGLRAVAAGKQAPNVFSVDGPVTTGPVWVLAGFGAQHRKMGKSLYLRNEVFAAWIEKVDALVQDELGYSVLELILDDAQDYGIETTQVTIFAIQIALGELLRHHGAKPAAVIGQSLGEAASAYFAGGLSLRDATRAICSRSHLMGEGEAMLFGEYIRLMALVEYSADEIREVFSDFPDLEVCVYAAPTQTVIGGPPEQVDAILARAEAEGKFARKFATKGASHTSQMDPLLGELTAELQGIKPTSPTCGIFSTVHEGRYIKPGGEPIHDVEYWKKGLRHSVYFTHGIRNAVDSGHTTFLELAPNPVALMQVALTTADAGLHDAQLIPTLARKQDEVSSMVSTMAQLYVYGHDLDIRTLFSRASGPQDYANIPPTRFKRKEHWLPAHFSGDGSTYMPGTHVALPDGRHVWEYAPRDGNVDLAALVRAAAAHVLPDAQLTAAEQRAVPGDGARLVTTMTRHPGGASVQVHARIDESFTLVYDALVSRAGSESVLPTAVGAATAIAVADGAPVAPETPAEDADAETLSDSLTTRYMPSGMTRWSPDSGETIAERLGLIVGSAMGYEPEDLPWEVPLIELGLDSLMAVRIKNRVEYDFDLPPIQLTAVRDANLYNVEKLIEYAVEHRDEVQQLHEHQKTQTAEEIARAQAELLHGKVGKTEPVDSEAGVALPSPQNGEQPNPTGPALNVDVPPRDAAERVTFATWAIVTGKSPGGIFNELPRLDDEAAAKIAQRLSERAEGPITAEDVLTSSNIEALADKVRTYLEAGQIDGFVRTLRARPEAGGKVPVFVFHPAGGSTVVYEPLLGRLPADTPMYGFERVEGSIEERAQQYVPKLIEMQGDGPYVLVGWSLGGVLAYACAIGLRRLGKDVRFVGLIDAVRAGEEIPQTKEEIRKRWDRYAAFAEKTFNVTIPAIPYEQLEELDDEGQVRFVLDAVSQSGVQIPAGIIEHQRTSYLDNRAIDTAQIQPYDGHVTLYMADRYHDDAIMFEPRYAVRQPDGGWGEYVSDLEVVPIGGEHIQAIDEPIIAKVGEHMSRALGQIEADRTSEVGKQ

Values are the deposited “Percent Effect”, in %. How 0% and 100% were set is not recorded. Most values in the screen are low, and negative values occur. This is an unselected part of the compounds tested.

A: 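Enzyme assay of CoaBC with a phosphate dye (Biomol Green) read at 650 nm. Target: Coenzyme A biosynthesis protein CoaBC, Mycobacterium tuberculosis (UniProt P9WNZ1). Concentration: 30 µM. Higher reads as stronger inhibition, judged from the few compounds that gave an IC50. Most strong results did not repeat in a second test. About 67,000 compounds were tested under these conditions; 0.06% (about 40) showed 50% or more at least once.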
B: 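Enzyme assay of the cytosolic lysyl-tRNA synthetase in 384-well plates, read by luminescence. Target: Lysine-tRNA ligase, Plasmodium falciparum 3D7 (UniProt Q8IDJ8). Concentration: 30 µM. Direction is inferred from only a few compounds that gave an IC50; most scored high, so higher reads as stronger inhibition. About 69,000 compounds were tested under these conditions; 0.071% (about 49) showed 50% or more at least once.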
C: 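Assay of Toxoplasma gondii numbers, read through their beta-galactosidase reporter with a colour substrate. Tested at 10 µM. Higher reads as fewer parasites (inferred from which compounds were picked for retests). Of about 67,000 compounds tested this way, about 260 (0.38%) reached 50% or more in at least one test.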
D: 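Tryptophan-tRNA ligase, Mycobacterium tuberculosis (UniProt P9WFT3). Enzyme assay of tryptophanyl-tRNA synthetase; the read-out is not stated. Tested at 10 µM. Direction is not recorded; retested compounds ran higher, which suggests that high means inhibition. About 65,000 compounds were tested under these conditions; 0.098% (about 64) showed 50% or more at least once.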
E: 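Enzyme assay of the thioesterase domain of polyketide synthase 13; the read-out is not stated. Target: Polyketide synthase Pks13, Mycobacterium tuberculosis (UniProt I6X8D2). Tested at 30 µM. The record gives no direction; the compounds picked for IC50 retests had high values, so higher reads as stronger inhibition. Of about 67,000 compounds tested this way, about 300 (0.46%) reached 50% or more in at least one test.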

CC(C)(C)C(O)CN1CCN(CC(=O)NC2CCOCC2)CC1 (stereo unspecified) gave A: -3.226%; B: 2.259%; C: -2.521%; D: -5.448%; E: -10.98%.
CCN1CCC(c2cncc(N(C)C)n2)CC1 gave A: 7.513%; B: 2.276%; C: -1.498%; D: 3.877%; E: -41.05%.
Cc1nn(C)c(C)c1C1COCCN1C(=O)c1cc(F)ccc1F (stereo unspecified) gave A: 4.062%; B: 3.001%; C: 2.688%; D: -2.03%; E: -5.686%.
CCc1nc(CN(C)C(=O)c2cc(CN(CC)CC)c(CC)o2)no1 gave A: -1.928%; B: -2.791%; C: -9.451%; D: 0.8414%; E: -2.261%.
CCc1nnc2n1CCN(CC(=O)Nc1sccc1C#N)C2 gave A: 6.845%; B: -0.8618%; C: -1.569%; D: 2.047%; E: -2.017%.
c1ccc2c(Cc3nnc([C@H]4CCN(CC5CC5)C4)o3)c[nH]c2c1 gave A: 14.73%; B: 7.084%; C: 3.396%; D: -0.9916%; E: -26.01%.
Cc1nn(C)c(C)c1CCC(=O)N1CCc2sccc2C1 gave A: -1.225%; B: -2.387%; C: 1.747%; D: 0.3704%.
CN1CC(Nc2nc3c(cnn3C(C)(C)C)c(=O)[nH]2)CCC1=O (stereo unspecified) gave A: -1.978%; B: 2.317%; C: 1.241%; D: 0.854%; E: -29.92%.
O=C(CC1COCCN1)NCCc1nc(-c2ccccn2)no1 (stereo unspecified) gave A: 0.4348%; B: 4.194%; C: 3.558%; D: -2.216%; E: -10.47%.
CCCn1cc(NC(=O)c2ccc(S(=O)(=O)CC)cc2)ccc1=O gave A: 8.56%; B: 78.9%; C: -4.432%; D: 14.81%; E: -2.698%.
CN(C)CCN1CCCC12CCN(C(=O)c1ccncc1)CC2.O=C(O)C(F)(F)F.O=C(O)C(F)(F)F gave C: 13.13%.
[H][C@@]12CCCCN(C)[C@]1([H])[C@@H](c1ccccc1)CCN2C(=O)c1ccncc1 gave C: -25.83%.
Cc1c(C(C)NC(=O)C2CCCCC2)cnn1C (stereo unspecified) gave A: -1.965%; B: -0.567%; C: 5.847%; D: -3.518%; E: 2.133%.
CCN1CC2(CC1=O)CN(C(=O)NC(C)C)CCN(C(=O)NC(C)C)C2 gave A: 4.242%; B: 3.275%; C: -35.59%; E: -1.908%.
Cl.O=C1CC2(CCCNC2)C(=O)N1Cc1ccccc1 (stereo unspecified) gave C: 4.646%.
CN1C(=O)CO[C@H](c2ccc(NC(=O)c3cccc(F)c3)cc2)[C@H]1CO gave A: 7.726%; B: -2.573%; C: 7.867%; D: 1.593%; E: -14.45%.
COCCOc1ccc(F)cc1NCc1nc2ccccc2n1C gave A: -2.133%; B: 2.474%; C: -5.28%; D: 2.448%; E: -3.542%.
CSc1cc2c(cc1NC(=O)N(C)Cc1cnn(C)c1)OCCO2 gave A: -0.4878%; B: 3.705%; C: -0.1894%; D: -4.4%; E: 1.001%.
Cc1ccc(CN2CC[C@@H](N(C)C(C)C)[C@@H]2Cc2ccccc2)o1 gave B: 5.51%; C: -4.153%; D: -0.9709%; E: -24.51%.
c1cncc(OC[C@@H]2CC[C@H]3[C@H](CCN3Cc3cccs3)O2)c1 gave A: 4.663%; B: -0.2979%; D: 2.467%; E: -25.87%.
COc1c(C)cnc(CSc2nnc(NC3CC3)s2)c1C gave A: 5.372%; B: 1.418%; C: 1.628%; D: 0.5069%; E: -24.77%.
CSc1ncn(-c2nc(N(C)C)nc(N(C)C)n2)n1 gave A: -11.46%; B: -0.7166%; C: 10.74%; D: 2.184%; E: 7.996%.
CCN(C(=O)NCc1ccc(C)cc1OC)C(C)c1cccnc1 (stereo unspecified) gave A: 1.353%; B: 0.7839%; D: -0.6388%; E: -1.649%.
COC(=O)CCCC(=O)N1CCCCC1c1ccc(F)cc1 (stereo unspecified) gave A: 1.341%; B: 2.95%; C: 1.687%; D: 4.371%; E: -27.43%.
c1csc(CN2CC[C@H]3C[C@H](c4ccncn4)O[C@@H]3C2)c1 gave A: 4.689%; B: 2.996%; D: 2.315%; E: -1.261%.
CC(C)n1cnnc1CN(C)C(=O)c1ccccc1-n1cncn1 gave A: 8.28%; B: 7.453%; C: -3.738%; D: -2.596%; E: 0.9108%.
c1ccc(-c2cc(CN3CCCC(Cn4cncn4)C3)on2)cc1 (stereo unspecified) gave A: 5.362%; B: 1.326%; C: 8.314%; D: -1.988%; E: -6.466%.

The first 3 entries again:

| compound | A | B | C | D | E |
|---|---|---|---|---|---|
| `CC(C)(C)C(O)CN1CCN(CC(=O)NC2CCOCC2)CC1` (stereo unspecified) | -3.226 | 2.259 | -2.521 | -5.448 | -10.98 |
| `CCN1CCC(c2cncc(N(C)C)n2)CC1` | 7.513 | 2.276 | -1.498 | 3.877 | -41.05 |
| `Cc1nn(C)c(C)c1C1COCCN1C(=O)c1cc(F)ccc1F` (stereo unspecified) | 4.062 | 3.001 | 2.688 | -2.03 | -5.686 |

Measurements from “University of Dundee, Small-Polar-MMV Screening Library” (2021), ChEMBL document CHEMBL3988442.